{
  "source": "paper PMC7375243",
  "about": "“Structural Basis of Human Helicase DDX21 in RNA Binding, Unwinding, and Antiviral Signal Activation” (Advanced Science, 2020)",
  "key": {"[1]": {"target": "T1, DDX21 core D339H/E340G (DEV mutant) (human) (UniProt Q9NR30)", "T1 sequence (looked up)": "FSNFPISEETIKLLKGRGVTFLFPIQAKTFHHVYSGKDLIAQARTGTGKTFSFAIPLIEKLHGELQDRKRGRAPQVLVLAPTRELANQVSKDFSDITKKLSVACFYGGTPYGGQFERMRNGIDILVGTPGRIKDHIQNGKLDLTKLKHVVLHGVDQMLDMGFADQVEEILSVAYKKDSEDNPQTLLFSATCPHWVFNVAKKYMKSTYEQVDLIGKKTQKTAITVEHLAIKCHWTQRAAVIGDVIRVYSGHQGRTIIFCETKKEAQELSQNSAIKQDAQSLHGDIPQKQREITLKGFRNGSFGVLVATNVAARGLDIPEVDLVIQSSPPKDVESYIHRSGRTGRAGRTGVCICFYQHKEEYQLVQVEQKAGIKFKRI", "test": "MST", "conditions": "2 mM AMPPNP, 2 mM MgCl2, stronger than WT, value only in figure, MST: 50 mM Tris pH 7.5, 50 mM KCl, 2 mM MgCl2, 1 mM TCEP, 0.01% NP-40, 0.05 mg/mL BSA, 50 nM FAM-RNA, temperature not given, recombinant protein, residues 188-563, protein details: N-terminal His-SUMO, removed by ULP1, label: FAM"}, "DDX21 core D321A (human)": {"target": "T2, DDX21 core D321A (human) (UniProt Q9NR30)", "T2 sequence (looked up)": "T1 sequence (looked up) with D134A, H152D, G153E", "test": "UV crosslinking", "conditions": "increased RNA binding; recombinant protein; residues 188-563; protein details: N-terminal His-SUMO, removed by ULP1; label: FAM"}},
  "note": "Positions count from the first letter of the chain named. For at least one entry, the source does not settle the construct or the ends of the probe. At least one verdict rests on a figure or table, not on a statement of the authors. Protein sequences can lack the tags named with them.",
  "data": [
    {"sequence": "UUUUUUUUUUUUUUU [FAM-U15]", "values": [
      {"measurement": "binding result", "setting": "[1]", "result": "binds"},
      {"measurement": "binding result", "setting": "DDX21 core D321A (human)", "result": "binds"}
    ]}
  ]
}
